Assay [1] deals with Specificity protein 1 (human (endogenous in A549)) (UniProt P08047). The assay is described as follows: co-IP; sequential nuclear co-IP: nuclear lysates of A549 cells under hypoxia (2 h and 8 h) immunoprecipitated, then western blotting; TFIID as input control. Background: In western blotting, separated proteins are transferred to a membrane and probed.
Assay [2] concerns the target Hypoxia-inducible factor 1-alpha (human (endogenous in A549)) (UniProt Q16665). Described as above.

By UniProt entry, the sequences of proteins in these tests, tags left out.
UniProt P08047: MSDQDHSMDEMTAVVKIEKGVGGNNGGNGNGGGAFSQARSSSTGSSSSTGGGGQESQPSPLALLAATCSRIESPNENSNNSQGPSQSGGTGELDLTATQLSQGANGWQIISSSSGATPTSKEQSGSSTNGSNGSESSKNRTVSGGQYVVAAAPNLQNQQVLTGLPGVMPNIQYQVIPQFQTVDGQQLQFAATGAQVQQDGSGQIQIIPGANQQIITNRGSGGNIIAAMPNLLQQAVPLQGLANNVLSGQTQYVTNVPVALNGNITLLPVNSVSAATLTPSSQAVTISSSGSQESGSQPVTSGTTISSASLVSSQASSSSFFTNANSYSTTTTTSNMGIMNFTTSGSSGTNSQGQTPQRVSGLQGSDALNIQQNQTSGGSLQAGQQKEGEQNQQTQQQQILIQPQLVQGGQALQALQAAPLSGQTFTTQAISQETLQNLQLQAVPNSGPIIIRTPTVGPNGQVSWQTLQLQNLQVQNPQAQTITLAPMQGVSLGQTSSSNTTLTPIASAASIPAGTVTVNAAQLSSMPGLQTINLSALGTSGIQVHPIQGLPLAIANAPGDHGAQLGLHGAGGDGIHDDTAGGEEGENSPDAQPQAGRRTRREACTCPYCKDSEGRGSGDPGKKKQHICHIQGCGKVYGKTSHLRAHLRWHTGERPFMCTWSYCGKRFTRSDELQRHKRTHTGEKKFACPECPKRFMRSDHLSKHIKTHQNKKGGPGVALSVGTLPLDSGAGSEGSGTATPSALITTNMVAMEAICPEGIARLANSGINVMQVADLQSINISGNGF
UniProt Q16665: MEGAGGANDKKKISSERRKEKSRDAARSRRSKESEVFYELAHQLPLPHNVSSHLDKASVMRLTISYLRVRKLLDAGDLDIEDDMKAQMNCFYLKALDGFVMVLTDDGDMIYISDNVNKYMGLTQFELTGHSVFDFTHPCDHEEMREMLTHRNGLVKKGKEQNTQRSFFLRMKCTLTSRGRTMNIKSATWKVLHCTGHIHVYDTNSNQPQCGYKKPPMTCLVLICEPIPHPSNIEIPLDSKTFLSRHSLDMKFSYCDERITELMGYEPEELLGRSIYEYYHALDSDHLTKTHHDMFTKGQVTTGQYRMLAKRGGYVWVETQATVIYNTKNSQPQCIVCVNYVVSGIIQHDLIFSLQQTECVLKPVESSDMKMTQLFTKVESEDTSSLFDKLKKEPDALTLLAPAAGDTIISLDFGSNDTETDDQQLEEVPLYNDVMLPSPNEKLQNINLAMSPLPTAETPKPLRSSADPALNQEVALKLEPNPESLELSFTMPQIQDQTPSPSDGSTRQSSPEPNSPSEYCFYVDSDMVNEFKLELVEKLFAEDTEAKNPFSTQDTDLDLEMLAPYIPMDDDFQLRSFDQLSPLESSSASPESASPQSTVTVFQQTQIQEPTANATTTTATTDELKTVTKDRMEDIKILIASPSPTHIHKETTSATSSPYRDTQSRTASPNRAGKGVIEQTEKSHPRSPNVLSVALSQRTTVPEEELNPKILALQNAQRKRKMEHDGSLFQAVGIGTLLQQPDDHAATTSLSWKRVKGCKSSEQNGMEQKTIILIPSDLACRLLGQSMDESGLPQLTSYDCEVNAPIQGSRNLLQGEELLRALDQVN

No constants are given. Whether binding was seen depends on the method and setting. Binding seen in cells or lysates may run through a third protein. Some entries that bind do so weakly or less than the wild type.

For “Hypoxia-inducible factor 1-alpha (from UniProt Q16665 1-826)”, the binding result in assay [1] is recorded as “binds”. Consider “Specificity protein 1 (from UniProt P08047 1-785)”, for which the binding result in assay [2] was “binds”.

The record behind these values is article PMC6869211.
